Each structure is given as a SMILES string. The list shows a part of the results. Further columns of the screen follow, without active or inactive calls. Most of these compounds were active or inconclusive in the main read-out, so they are no random draw. The note in brackets gives the kind of curve behind each potency; many fits are weak.

This test in a line: qHTS Assay for Modulators of Lamin A Splicing. The note with it: HeLa LMNA splicing GFP/RFP minigene ratio, 48 h. A digest of the protocol:
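S3 HeLa stable clones carrying a lamin A-EGFP splicing minigene plus DsRed2 were seeded at 600 cells/well in Opti-MEM with 2% FBS, pin-dosed and incubated 48 h at 37°C. Acumen cytometry (488 nm) gave the GFP/RFP total-intensity ratio.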

The mark [1] stands for this setting: measured here: GFP splicing reporter channel.
Where [2] appears, read: measured here: RFP viability control channel.

For `COc1ccc(C)cc1NC(=O)CCc1c(C)nn(-c2ccc(N3CCCCC3)nn2)c1C`, the AC50 was 5.01 µM [falling, partial curve, poor fit] under setting [1] and 0.282 µM [falling, full curve, poor fit] under setting [2]. Regarding `N#Cc1nc(-c2ccc(OCc3ccccc3)cc2)oc1NCCCn1ccnc1`, the AC50 under setting [1] was 20 µM [rising, single point]. Regarding `Cc1ccc(S(=O)(=O)N(C)CC(O)Cn2c3ccccc3c3ccccc32)cc1` (centres undefined), under setting [2], the AC50 was 35.5 µM [rising, single point].

Turning to `CC1Cc2cc(-c3csc(NC(=O)Cc4cccs4)n3)ccc2N1S(C)(=O)=O` (centres undefined), under setting [2], the AC50 is 2 µM [rising, full curve]. Consider `FC(F)(F)c1cc(-c2cccs2)nc2nc(N3CCOCC3)sc12`, for which the AC50 is 1.78 µM [falling, full curve] under setting [1] and 1.12 µM [falling, full curve, poor fit] under setting [2]. As to `CCOc1ccc2nc3cc(N)ccc3c(N)c2c1`, the AC50 by setting is: under setting [1], 35.5 µM [rising, single point]; under setting [2], 0.00178 µM [rising, full curve, poor fit]. `NS(=O)(=O)c1ccc(CCNC(=S)Nc2ccccc2)cc1`: the AC50 under setting [1] is 5.01 µM [falling, partial curve, poor fit] and the AC50 under setting [2] was 5.01 µM [falling, partial curve, poor fit].

As to `Cc1ccc(S(=O)(=O)N2CCCC2C(=O)NC2CCCCC2)cc1` (centres undefined), the AC50 under setting [2] was 35.5 µM [rising, single point]. On the same count and under the same terms, then `CC1=CC(=Nc2c(C)n(C)n(-c3ccccc3)c2=O)C=C(C)C1=O`, with 14.1 µM [rising, single point]; and `CCCC[N+](C)(C)CCC(=O)NC(C)(C)CS(=O)(=O)[O-]`, with 25.1 µM [falling, partial curve, poor fit]. In the case of `COc1cc(/C=C/C(=O)c2c(O)ccc3c(C)cc(=O)oc23)ccc1O`, the AC50 is 22.4 µM [falling, single point] under setting [1] and 25.1 µM [falling, single point] under setting [2].

As to `Cc1cc(C)nc(SC2=CS(=O)(=O)c3ccccc32)n1`, the AC50 is, setting by setting: under setting [1], 7.08 µM [falling, partial curve]; under setting [2], 10 µM [falling, partial curve]. Take `O=C(N/N=C1\SCC(=O)N1CCc1ccccc1)c1cccs1`: the AC50 under setting [2] is 1.26 µM [falling, full curve, poor fit]. As to `O=C(Nc1nccs1)c1ccc(S(=O)(=O)NCC2CCCCC2)cc1`, the AC50 under setting [2] is 2.51 µM [rising, full curve]. The same measure, in the same setting: the value for `N#CCCn1nc(-c2ccc([N+](=O)[O-])cc2)cc1Nc1ccccc1NC(=O)C(F)(F)F` was 10 µM [rising, partial curve, poor fit]. As to `CCCCCc1ccc(-c2ccc(=O)[nH]n2)cc1`, under setting [1], the AC50 is 14.1 µM [falling, single point]. Regarding `O=C(NC1CCCCC1)N(Cc1ccccc1)Cc1ccco1`, under setting [2], the AC50 is 31.6 µM [rising, single point].

Take `Cc1ccc(NC(=O)CS(=O)CC(=O)NC2CCN(Cc3ccccc3)CC2)c(C)c1` (centres undefined): the AC50 under setting [1] is 15.8 µM [rising, single point]. On to `CC(C)c1ccc(-c2noc(C3CCCN(S(C)(=O)=O)C3)n2)cc1` (centres undefined), for which the AC50 under setting [2] was 31.6 µM [rising, single point]. With `Clc1ccc(OCCSc2nnnn2C2CCCCC2)cc1`, the AC50 under setting [2] was 35.5 µM [rising, single point].

`O=C(COc1ccccc1-c1ccccc1)N/N=C/c1ccncc1`: under setting [1], the AC50 is 14.1 µM [falling, single point]. Same read-out and setting: the value for `COC(=O)C1=C(C(=O)OC)[C@@H]2N(C)c3ccc(OC)cc3[C@@]23C[C@@H](C(=O)OC)N(S(=O)(=O)c2c(C)noc2C)C3=N1` was 0.158 µM [rising, single point]. For `COc1ccc(NC(=S)NC(=O)/C=C/c2ccco2)cc1`, the AC50 under setting [2] was 3.55 µM [rising, partial curve, poor fit]. On the same count and under the same terms, then `O=C(CNC(c1ccccc1)c1ccccc1)Nc1ccccc1-c1ccccc1`, with 35.5 µM [rising, single point].

Turning to `Cc1ccc(CCNC(=O)c2cnc3c(C)cccn3c2=O)cc1`, the AC50 under setting [1] was 4.47 µM [falling, full curve, poor fit] and the AC50 under setting [2] was 0.708 µM [falling, full curve, poor fit].

As for `COc1ccc(C(=O)/C(=C\c2ccco2)N2C=CC=CC2=C(C#N)C#N)cc1`, the AC50 is 2.51 µM [falling, full curve] under setting [1] and 3.55 µM [falling, full curve] under setting [2]. Consider `CCCNc1ccc(S(=O)(=O)N(C(C)C)C(C)C)cn1`, for which the AC50 under setting [1] was 0.316 µM [rising, full curve, poor fit] and the AC50 under setting [2] is 0.316 µM [rising, full curve, poor fit].

Regarding `CC1CCCN(C(=O)c2ccc(COc3ccccc3Br)cc2)C1` (centres undefined), the AC50 under setting [2] was 31.6 µM [rising, single point]. Consider `Nc1nc(COc2ccc3ccccc3c2)cs1`, for which, under setting [1], the AC50 is 4.47 µM [rising, full curve, poor fit].

Regarding `Cc1ccn2c(Nc3ccccc3C)c(-c3ccncc3)nc2c1`, the AC50 under setting [2] was 12.6 µM [rising, partial curve]. For the molecule `Cn1c(N)c(C(=O)COC(=O)c2cc(C3CC3)nc3ccccc23)c(=O)n(Cc2ccccc2)c1=O`, the AC50 is 15.8 µM [rising, single point] under setting [1] and 20 µM [rising, single point] under setting [2]. Turning to `CCCCNC(=O)CCCCCNS(=O)(=O)c1ccc(Br)cc1`, the AC50 under setting [1] was 0.00355 µM [rising, full curve, poor fit]. With `COc1ccc(OCc2nnc(SC(C)C(=O)Nc3nccs3)n2-c2ccccc2)cc1` (centres undefined), the half-maximal activity concentration (AC50) by setting is: under setting [1], 8.91 µM [rising, partial curve, poor fit]; under setting [2], 12.6 µM [rising, single point].

In the case of `O=C(c1cc(F)c(F)cc1Cl)N1CCN(c2ccc([N+](=O)[O-])c3ncccc23)CC1`, the AC50 under setting [1] was 14.1 µM [rising, partial curve, poor fit] and the AC50 under setting [2] was 14.1 µM [rising, partial curve]. In the case of `CCOc1ccc2nc(NCCNC(=O)C(C)(C)C)c(C)cc2c1`, the AC50 under setting [2] is 35.5 µM [falling, partial curve, poor fit]. The same measure, in the same setting: then `COc1ccc(N2CCN(C(CNC(=O)C(=O)NCC3CCCO3)c3ccco3)CC2)cc1` (centres undefined), with 20 µM [rising, single point]. For the molecule `Cc1[nH]n(-c2ccccc2)c(=O)c1Sc1ccc(Cl)cc1`, under setting [2], the AC50 was 31.6 µM [rising, single point]. As to `CC(NC(=O)C(NC(=O)C(Cc1c[nH]c2ccccc12)NC(=O)OC(C)(C)C)C(C)C)C(N)=O` (centres undefined), under setting [1], the AC50 is 35.5 µM [rising, partial curve, poor fit].

Regarding `Cc1ccc(C(=O)Nc2nc(=O)n(C(=O)CC(C)C)s2)cc1`, the AC50 is 25.1 µM [falling, single point] under setting [1] and 35.5 µM [falling, single point] under setting [2]. For the molecule `COc1ccc(C(=O)Nc2ccc3nc(SCC(=O)N4CCCC4)sc3c2)cc1`, the AC50 under setting [2] was 0.0178 µM [falling, full curve, poor fit]. On to `CC(C)(C)SCCNC(=O)/C=C/c1ccc([N+](=O)[O-])cc1`, for which the AC50 under setting [2] was 28.2 µM [rising, partial curve]. In the case of `CCn1cc(C2=NOC(C(=O)Nc3cccc(C(C)=O)c3)C2)c(C)n1` (centres undefined), the AC50 reads like this: under setting [1], 1.58 µM [rising, full curve]; under setting [2], 14.1 µM [rising, partial curve]. Take `CCN(CC)Cc1c(O)ccc2c(=O)c(-c3ccc4c(c3)OCCO4)coc12`: the AC50 under setting [2] is 22.4 µM [rising, single point].

Consider `CCCNC(=O)NC(=O)COC(=O)c1ccc(S(=O)(=O)N(C)c2ccccc2OC)cc1`, for which the AC50 under setting [2] is 3.55 µM [rising, full curve].

Take `Cc1ccc(S(=O)(=O)N2CCC(c3nc4c(nnn4Cc4ccccc4)c(=O)[nH]3)CC2)cc1`: the AC50 under setting [2] was 3.98 µM [falling, single point].

For `CC(=O)c1ccc2c(c1)C1C=CCC1C(c1ccc(S(=O)(=O)N3CCOCC3)cc1)N2` (centres undefined), the AC50 runs as follows: under setting [1], 2.51 µM [rising, partial curve]; under setting [2], 2.51 µM [rising, single point]. For the molecule `COc1ccc(NS(=O)(=O)c2ccc(OC)c(OC)c2)cc1OC`, the AC50 under setting [2] is 17.8 µM [rising, single point].

For `c1cncc(CNc2ncnc3ccc(-c4ccoc4)cc23)c1`, the AC50 under setting [1] is 2.51 µM [falling, partial curve]. Turning to `CCc1ccc2[nH]c(=O)c(CN(Cc3ccccc3OC)Cc3nnnn3Cc3ccco3)cc2c1`, the AC50 under setting [1] was 35.5 µM [falling, single point] and the AC50 under setting [2] is 35.5 µM [falling, single point]. Turning to `CCc1[nH]c(C(=O)O)c(C)c1C(=O)OC`, the AC50 under setting [2] was 0.00501 µM [falling, full curve, poor fit]. For `CCn1ccc2c(OCC(=O)Nc3ccc(C)c(Cl)c3)cccc2c1=O`, the AC50 was 35.5 µM [falling, single point] under setting [1] and 0.01 µM [falling, full curve, poor fit] under setting [2]. On to `O=C(COC(=O)c1cnccn1)c1ccc(Cl)cc1`, for which the AC50 under setting [1] is 1.41 µM [falling, partial curve]. Turning to `N#C/C(=C\c1cccn1-c1ccccc1)C(=O)NC1CCCCC1`, the AC50 under setting [2] was 3.98 µM [rising, full curve, poor fit].

Consider `CCCN(CCC)c1nc(Cl)nc(NCc2ccco2)n1`, for which the AC50 under setting [2] was 0.0501 µM [rising, single point].

As to `O=C(/C=C/c1ccc(Cl)cc1Cl)Nc1ccc(CN2CCOCC2)cc1`, the AC50 runs as follows: under setting [1], 7.94 µM [rising, partial curve, poor fit]; under setting [2], 7.94 µM [rising, partial curve]. Consider `CC(C)CCOC(=O)C[N+](C)(C)CCOC1CC2CCC1(C)C2(C)C` (centres undefined), for which the AC50 under setting [1] was 0.0501 µM [rising, full curve, poor fit].

A word on the AC50: it is the concentration giving half of the maximal activity seen.

For the origin of these results see PubChem BioAssay AID1487 (National Center for Advancing Translational Sciences (NCATS), 2009).
